Experimental data published in patent US11707511B2, “Vaccine compositions and methods of using the same” (The Board of Supervisors of Louisiana State University and …, priority 2017, dated 2023).
Some of these results come from one statement about several compounds together. Some ranges recur; such a range may be that of the whole group of compounds.

Test system: C. albicans
Assay: Active immunization with peptide-pulsed dendritic cells, disseminated candidiasis caused by C. albicans in mice
Format: in vivo, Candida albicans
Details: up to 120 days post challenge
Experimental: Active Immunizations with peptide pulsed dendritic cells. […] It allows us to perform rapid throughput evaluation of candidate short peptides. When protective double universal peptide conjugate(s) become identified by this study, immunization approaches suitable for human use will be applied in further studies. All active vaccinations were conducted as previously described (6,7,9). DCs were pulsed in vitro with universal peptide as described before with minor modification by totally removing CFA for last booster (6). Briefly, DCs in culture were pulsed with the peptide antigen (1 μM) on day 6. On day 7, PGE2 (10^-7M) was added along with LPS (2 μg/ml, Sigma) for 24 h to induce DC maturation. On day 9, antigen-pulsed DCs were washed extensively and […] in 200 μl DPBS were given by intraperitoneal (i.p.) route as the priming dose to mice. The mice were boosted i.p. at day 14 and day 28 with fresh antigen-pulsed DCs without adjuvant.
Table 2 lists universal peptide vaccines that induced protection against disseminated candidiasis caused by C. albicans in mice. The universal peptide vaccines listed in Table 1 are expressed at high homology by all analyzed medically important Candida species in addition to C. albicans (see details at Table 2). By dendritic cell (DC) based immunization approach as described herein, each of the universal peptide vaccines was able to protect mice against disseminated candidiasis caused by C. albicans, with the survival rate 80-100% up to 80-120 days post challenge.
To perform rapid throughput evaluation of peptide vaccine candidates, immunizations were done by use of the similar antigen-pulsed DC based vaccine strategy with modification by totally removing CFA from vaccine formula. Fba peptide was used as positive control.

FWVNPDCGLKTR (CFWVNPDCGLKTR; (1)..(1) May or may not be present) [GPV-M1]
survival rate: 80-100%

NDKYSLAPVATELEK [GPV-P11]
survival rate: 80-100%

NPDCGLKTR [GPV-MO2]
survival rate: 80-100%

PTTTIGSFPQ [GPV-MO1]
survival rate: 80-100%

STGGGASLELLEGK [GPV-P2]
survival rate: 80-100%

TTTIGSFPQTKDIR (CTTTIGSFPQTKDIR; (1)..(1) May or may not be present) [GPV-M2]
survival rate: 80-100%
